{"source": "PubChem BioAssay AID2685", "about": "(National Center for Advancing Translational Sciences (NCATS), 2010)", "assay": "qHTS Assay for Lipid Storage Modulators in Drosophila S3 Cells;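 on cell number change: cells counted by Cell Tracker Red CMTPX staining in the red channel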", "conditions": "BODIPY lipid droplet fluorescence, 18-24 h; for cell number change: measured here: cell count max response, cells fed with added oleic acid", "method_in_brief": "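Drosophila S3 cells loaded with oleic acid (400 uM, as added) and compounds at several concentrations; lipid droplets imaged by 488-nm laser-scanning cytometry, 500–530 nm intensity and object ratio to cell channel. Percent activity normalized to 20 uM Triacsin C.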", "key": {"[1]": {"conditions": "measured here: cell number channel AC50, cells fed with added oleic acid"}, "[2]": {"conditions": "measured here: lipid fluorescence (Fed channel) AC50, cells fed with added oleic acid"}}, "note": "This is one part of the list. These are further read-outs of the screen, such as a control signal, another cell line or another target. No call is given for them. The list favours compounds with an active or inconclusive main result. Potencies come from curve fits of mixed quality, noted in brackets."}
{"smiles": "CCCCNC(=O)Nc1c(C)cc(SC#N)cc1C", "values": [{"measurement": "cell number change", "result": 16.7, "unit": "%"}, {"measurement": "AC50", "setting": "[1]", "result": "4.11 µM [rising, partial curve, poor fit]"}, {"measurement": "AC50", "setting": "[2]", "result": "6.51 µM [rising, single point]"}]}
{"smiles": "Cn1nc(C(=O)NCc2ccc(Cl)cc2)c2c1-c1ccccc1S(=O)(=O)C2", "values": [{"measurement": "cell number change", "result": 1.32, "unit": "%"}, {"measurement": "AC50", "setting": "[1]", "result": "0.58 µM [falling, single point]"}]}
{"smiles": "N#CCCN1CCN(C(=O)c2c(N)no[n+]2[O-])CC1", "values": [{"measurement": "cell number change", "result": -15.8, "unit": "%"}]}
{"smiles": "COc1cc(OC)cc(-c2n[nH]c(=S)n2-c2ccc3c(c2)OCO3)c1", "values": [{"measurement": "AC50", "setting": "[1]", "result": "0.206 µM [rising, full curve]"}, {"measurement": "AC50", "setting": "[2]", "result": "1.84 µM [rising, partial curve, poor fit]"}]}
{"smiles": "O=C(CN1C(=O)c2ccc([N+](=O)[O-])cc2C1=O)NCC1CCCO1", "note": "(configuration not stated)", "values": [{"measurement": "AC50", "setting": "[2]", "result": "0.82 µM [falling, single point]"}]}
{"smiles": "CC(C)(CNC(=O)c1ccc(NS(=O)(=O)c2ccc(Br)cc2)cc1)N1CCOCC1", "values": [{"measurement": "cell number change", "result": -27.8, "unit": "%"}, {"measurement": "AC50", "setting": "[1]", "result": "4.61 µM [falling, full curve, poor fit]"}, {"measurement": "AC50", "setting": "[2]", "result": "4.61 µM [falling, full curve]"}]}
{"smiles": "COC(=O)c1cn(C(=O)c2ccccc2Cl)c2ccccc12", "values": [{"measurement": "cell number change", "result": 23.1, "unit": "%"}, {"measurement": "AC50", "setting": "[2]", "result": "16.4 µM [falling, partial curve, poor fit]"}]}
{"smiles": "O=Cc1c(OCc2ccccc2)ccc2ccccc12", "values": [{"measurement": "cell number change", "result": -26.2, "unit": "%"}, {"measurement": "AC50", "setting": "[1]", "result": "0.517 µM [falling, single point]"}]}
{"smiles": "CN(C)S(=O)(=O)c1ccc(NC(=O)c2cc(F)c(F)cc2Cl)cc1", "values": [{"measurement": "cell number change", "result": 106, "unit": "%"}, {"measurement": "AC50", "setting": "[1]", "result": "29.1 µM [rising, single point]"}]}
{"smiles": "COc1cccc(N(CC(=O)NC2CCCC2)C(=O)Cn2nnc(-c3ccc(C)o3)n2)c1", "values": [{"measurement": "cell number change", "result": -12.7, "unit": "%"}]}
{"smiles": "CCC1CCCCN1C(=O)C(=O)c1cn(CC(=O)N(CC)CC)c2ccccc12", "note": "(configuration not stated)", "values": [{"measurement": "cell number change", "result": 3.18, "unit": "%"}]}
{"smiles": "O=C(O)c1cc(S(=O)(=O)Nc2ccc3cn[nH]c3c2)ccc1O", "values": [{"measurement": "cell number change", "result": -5.29, "unit": "%"}, {"measurement": "AC50", "setting": "[1]", "result": "6.51 µM [rising, single point]"}, {"measurement": "AC50", "setting": "[2]", "result": "0.58 µM [rising, single point]"}]}
{"smiles": "Cc1noc(C)c1C(=O)N1CCN(S(=O)(=O)c2ccc(F)cc2)CC1", "values": [{"measurement": "cell number change", "result": -16, "unit": "%"}, {"measurement": "AC50", "setting": "[1]", "result": "6.51 µM [falling, single point]"}, {"measurement": "AC50", "setting": "[2]", "result": "6.51 µM [falling, single point]"}]}
{"smiles": "Cc1ccc(S(=O)(=O)NC2c3cccc4cccc(c34)C2Sc2nc(C)cc(C)n2)cc1", "note": "(configuration not stated)", "values": [{"measurement": "cell number change", "result": -9.78, "unit": "%"}]}
{"smiles": "Cc1ccc(OCCCC(=O)NC(C)c2ccccc2)cc1", "note": "(configuration not stated)", "values": [{"measurement": "cell number change", "result": 12.6, "unit": "%"}, {"measurement": "AC50", "setting": "[2]", "result": "0.103 µM [falling, full curve, poor fit]"}]}
{"smiles": "Cc1ccc2c(c1)-c1c(ssc1=S)C(C)(C)N2C(=O)c1ccco1", "values": [{"measurement": "cell number change", "result": -74.9, "unit": "%"}, {"measurement": "AC50", "setting": "[1]", "result": "11.6 µM [falling, partial curve]"}, {"measurement": "AC50", "setting": "[2]", "result": "10.3 µM [falling, partial curve]"}]}
{"smiles": "C=CCSc1nc(N)c(C(=O)Nc2ccccc2)cc1C#N", "values": [{"measurement": "AC50", "setting": "[1]", "result": "2.31 µM [rising, partial curve]"}]}
{"smiles": "COc1ccc2cc(C(=O)/C=C/c3cc(OC)c(OC)c(OC)c3)ccc2c1", "values": [{"measurement": "cell number change", "result": 20.6, "unit": "%"}, {"measurement": "AC50", "setting": "[2]", "result": "23.1 µM [falling, partial curve, poor fit]"}]}
{"smiles": "Cc1ccc(S(=O)(=O)N2CCCCC2)cc1NC(=O)c1cccnc1", "values": [{"measurement": "AC50", "setting": "[2]", "result": "6.51 µM [rising, single point]"}]}
{"smiles": "CCOC(=O)c1ccc(OCCOc2ccccc2C)cc1", "values": [{"measurement": "cell number change", "result": -4.01, "unit": "%"}]}
{"smiles": "COc1ccc2c(=O)c(-c3ccc4c(c3)OCO4)coc2c1", "values": [{"measurement": "cell number change", "result": 31.8, "unit": "%"}, {"measurement": "AC50", "setting": "[1]", "result": "1.84 µM [rising, partial curve, poor fit]"}, {"measurement": "AC50", "setting": "[2]", "result": "0.146 µM [rising, full curve]"}]}
{"smiles": "c1cncc(-c2csc(-c3cccnc3)n2)c1", "values": [{"measurement": "cell number change", "result": -4.17, "unit": "%"}, {"measurement": "AC50", "setting": "[2]", "result": "29.1 µM [falling, single point]"}]}
{"smiles": "Cc1nc2c(-c3ccccc3)cnn2c(N2CCOCC2)c1C", "values": [{"measurement": "AC50", "setting": "[2]", "result": "6.51 µM [falling, single point]"}]}
{"smiles": "CS(=O)(=O)Nc1cccc(C2=NN(C(=O)c3ccco3)C(c3cccs3)C2)c1", "note": "(configuration not stated)", "values": [{"measurement": "cell number change", "result": -1.74, "unit": "%"}, {"measurement": "AC50", "setting": "[2]", "result": "1.46 µM [rising, partial curve]"}]}
{"smiles": "Cc1cccc(C(=O)OCc2cc3ccccc3[nH]c2=O)c1", "values": [{"measurement": "cell number change", "result": -45.5, "unit": "%"}, {"measurement": "AC50", "setting": "[1]", "result": "9.2 µM [falling, partial curve]"}, {"measurement": "AC50", "setting": "[2]", "result": "11.6 µM [falling, partial curve]"}]}
{"smiles": "COCCN1CCN(c2cc(-c3ccccc3)nc3cc(-c4cccc(F)c4)nn23)CC1", "values": [{"measurement": "cell number change", "result": -23.5, "unit": "%"}, {"measurement": "AC50", "setting": "[2]", "result": "29.1 µM [falling, single point]"}]}
{"smiles": "O=C1c2cccc(OCc3ccc(F)cc3)c2CCN1Cc1ccc(F)cc1", "values": [{"measurement": "cell number change", "result": -22, "unit": "%"}]}
{"smiles": "CCOc1ccc(-n2c(SCC(=O)NC3CCS(=O)(=O)C3)nnc2-c2cccnc2)cc1", "note": "(configuration not stated)", "values": [{"measurement": "cell number change", "result": -4.07, "unit": "%"}, {"measurement": "AC50", "setting": "[1]", "result": "0.651 µM [rising, partial curve, poor fit]"}, {"measurement": "AC50", "setting": "[2]", "result": "0.651 µM [rising, partial curve, poor fit]"}]}
{"smiles": "CC(=O)c1c(C)[nH]c(C(=O)CSc2nnc(-c3ccccc3)o2)c1C", "values": [{"measurement": "AC50", "setting": "[2]", "result": "29.1 µM [falling, single point]"}]}
{"smiles": "Cc1ccc2nc(-c3ccncc3)c(NC3CCCCC3)n2c1", "values": [{"measurement": "AC50", "setting": "[1]", "result": "0.651 µM [rising, single point]"}, {"measurement": "AC50", "setting": "[2]", "result": "0.731 µM [rising, single point]"}]}
{"smiles": "CN(C)S(=O)(=O)N(CC(=O)NCCSCc1ccccc1)c1ccccc1", "values": [{"measurement": "cell number change", "result": 1.73, "unit": "%"}, {"measurement": "AC50", "setting": "[2]", "result": "1.84 µM [falling, partial curve]"}]}
{"smiles": "CC(CC(=O)Nc1ccc(C(N)=O)cc1)c1ccccc1", "note": "(configuration not stated)", "values": [{"measurement": "cell number change", "result": 13.9, "unit": "%"}, {"measurement": "AC50", "setting": "[2]", "result": "1.46 µM [rising, full curve]"}]}
{"smiles": "Cc1cc(C)n(-c2ccc(C(=O)OCC(=O)NCc3ccco3)cc2)n1", "values": [{"measurement": "cell number change", "result": -19.2, "unit": "%"}]}
{"smiles": "CC(C)(CNC(=O)c1cc(-c2ccc(Cl)s2)nc2ccccc12)N1CCOCC1", "values": [{"measurement": "cell number change", "result": 96, "unit": "%"}, {"measurement": "AC50", "setting": "[1]", "result": "13 µM [rising, partial curve]"}]}
{"smiles": "CC(C)c1nc(SCC(=O)Nc2c[nH]c(=O)[nH]c2=O)c2cnn(-c3ccccc3)c2n1", "values": [{"measurement": "cell number change", "result": 21.8, "unit": "%"}]}
{"smiles": "COc1ccccc1S(=O)(=O)CC(O)COc1ccccc1Cl", "note": "(configuration not stated)", "values": [{"measurement": "cell number change", "result": -1.39, "unit": "%"}, {"measurement": "AC50", "setting": "[2]", "result": "0.708 µM [falling, full curve]"}]}
{"smiles": "O=C(/C=C/c1ccc2c(c1)OCO2)NCCCN1CCOCC1", "values": [{"measurement": "cell number change", "result": 1.68, "unit": "%"}, {"measurement": "AC50", "setting": "[2]", "result": "0.058 µM [rising, full curve, poor fit]"}]}
{"smiles": "C=CCn1c(SCc2cc(=O)n3ccsc3n2)nc2sc(C)c(C)c2c1=O", "values": [{"measurement": "cell number change", "result": -12.7, "unit": "%"}, {"measurement": "AC50", "setting": "[1]", "result": "6.51 µM [rising, single point]"}, {"measurement": "AC50", "setting": "[2]", "result": "0.259 µM [rising, partial curve, poor fit]"}]}
